The other results are listed elsewhere or left out. Single values are uncertain here, since repeats match poorly. Peptide text beside a SMILES is read from it.

Sequences of proteins named here, by UniProt entry; tags and fusion partners are left off.
UniProt Q15717, whole entry: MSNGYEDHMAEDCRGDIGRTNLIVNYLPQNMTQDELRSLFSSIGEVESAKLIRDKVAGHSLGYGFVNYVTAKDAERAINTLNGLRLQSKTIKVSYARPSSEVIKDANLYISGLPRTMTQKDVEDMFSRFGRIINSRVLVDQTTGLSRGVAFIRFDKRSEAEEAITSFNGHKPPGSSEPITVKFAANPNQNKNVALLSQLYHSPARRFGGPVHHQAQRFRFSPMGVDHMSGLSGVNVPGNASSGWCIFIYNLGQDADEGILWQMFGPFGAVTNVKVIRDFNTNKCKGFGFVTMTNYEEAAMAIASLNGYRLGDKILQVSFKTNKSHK

This assay concerns the target HuR (ELAVL1) - TNFalpha ARE RNA complex (UniProt Q15717). The assay is described as follows: AlphaScreen HuR-RNA complex signal Z-score relative to positive controls (secondary screen) (Z-score (SD units of positive control)); higher = more complex signal. The conditions noted are these: screen stage: secondary re-screen.
In the case of `CO/N=C(\C(=O)N[C@@H]1C(=O)N2C(C(=O)O)=C(COC(C)=O)CS[C@H]12)c1csc(N)n1`, the “AlphaScreen HuR-RNA complex signal Z-score” value came to 0.264. The result for `CCCCCCCCCCCCCCCC(=O)OC[C@@H](NC(=O)C(Cl)Cl)[C@H](O)c1ccc([N+](=O)[O-])cc1` reads 0.27. In the case of `N=C(NCCCCCCNC(=N)NC(=N)Nc1ccc(Cl)cc1)NC(=N)Nc1ccc(Cl)cc1`, the “AlphaScreen HuR-RNA complex signal Z-score” value turned out to be 0.799.

Consider `Cc1nnc(SCC2=C(C(=O)O)N3C(=O)[C@@H](NC(=O)Cn4cnnn4)[C@H]3SC2)s1`, for which the “AlphaScreen HuR-RNA complex signal Z-score” value was 0.644. The value for `OC[C@@H](O)[C@@H](O)[C@H](O)[C@H](O)CO` was 0.573. As to `CC(=O)C12OC(C)(c3ccccc3)OC1CC1C3CCC4=CC(=O)CCC4(C)C3CCC12C` (stereo unspecified), the “AlphaScreen HuR-RNA complex signal Z-score” value came out at 0.358. The value for `Cc1cc(C)cc(OCC2CNC(=O)O2)c1` (stereo unspecified) was 1.6; that for `O=C1c2c(O)ccc(O)c2C(=O)c2c(NCCNCCO)ccc(NCCNCCO)c21` was -3.08. Take `CN(C)CCOC(c1ccccc1)c1ccccc1.Cn1c(=O)c2[nH]c(Cl)nc2n(C)c1=O`: the “AlphaScreen HuR-RNA complex signal Z-score” value was determined as 1.55. The result for `O=C1C(O)=C([C@H]2CC[C@H](c3ccc(Cl)cc3)CC2)C(=O)c2ccccc21` reads 2.02; that for `CN(C(=O)C(Cl)Cl)c1ccc(OC(=O)c2ccco2)cc1`, -2.15; that for `CN(C)CCCO[C@@H]1[C@H]2OC(C)(C)O[C@H]2O[C@@H]1[C@H](O)CO`, 1.08. The value for `CC=CC(=O)N(CC)c1ccccc1C` was 1.64; that for `CCC(C)(C)C(=O)O[C@H]1C[C@@H](C)C=C2C=C[C@H](C)[C@H](CC[C@@H]3C[C@@H](O)CC(=O)O3)[C@H]21` was 1.54; that for `C[C@@H]1C[C@H]2[C@@H]3CCC4=CC(=O)C=C[C@]4(C)[C@@]3(F)[C@@H](O)C[C@]2(C)[C@@]1(O)C(=O)CO` was 1.36.

As to `CCc1ccc(CCOc2ccc(CC3SC(=O)NC3=O)cc2)nc1` (stereo unspecified), the “AlphaScreen HuR-RNA complex signal Z-score” value is 1.54. For `c1ccc2[nH]c(-c3cscn3)nc2c1`, the “AlphaScreen HuR-RNA complex signal Z-score” value stood at 1.82. The result for `CC(=O)N(O)CCCCCNC(=O)CCC(=O)N(O)CCCCCNC(=O)CCC(=O)N(O)CCCCCN` reads 1.48; that for `CC(=O)OCC(CCn1cnc2cnc(N)nc21)COC(C)=O`, 2.21; that for `CC(=O)OCC(COC(C)=O)OC(C)=O`, 1.53. The result for `NC(=O)N1c2ccccc2CC(=O)c2ccccc21` reads 2.3. Regarding `CC(C)CCC[C@@H](C)[C@H]1CC[C@H]2[C@@H]3C(=O)C=C4C[C@@H](O)CC[C@]4(C)[C@H]3CC[C@]12C`, the “AlphaScreen HuR-RNA complex signal Z-score” value was found to be 1.04. With `COC(=O)[C@H](Cc1ccccc1)NC(=O)[C@@H](N)CC(=O)O` (H-Asp-Phe-OMe), the “AlphaScreen HuR-RNA complex signal Z-score” value is -0.445. The result for `CCN(CC)C(=O)N1CCN(C)CC1` reads 1.01; that for `CCCCOc1ccc(C(=O)CCN2CCCCC2)cc1`, 0.145; that for `NC[C@H]1O[C@H](O[C@H]2[C@H](O)[C@@H](O[C@H]3O[C@H](CO)[C@@H](O)[C@H](N)[C@H]3O)[C@H](N)C[C@@H]2N)[C@H](N)C[C@@H]1O`, 1.72. The value for `CCCCCCCCCCC[C@@H](C[C@@H]1OC(=O)[C@H]1CCCCCC)OC(=O)[C@H](CC(C)C)NC=O` was -7.29; that for `C#C[C@]1(O)CC[C@H]2[C@@H]3CCC4=Cc5oncc5C[C@]4(C)[C@H]3CC[C@@]21C` was 1.32. As for `COc1cc2c(cc1OC)C1(O)C(=O)c3ccc(O)c(C(=O)O)c3OC1CO2` (stereo unspecified), the “AlphaScreen HuR-RNA complex signal Z-score” value stood at 0.463. For the molecule `COc1ccc(C(=O)CC(=O)c2ccc(C(C)(C)C)cc2)cc1`, the “AlphaScreen HuR-RNA complex signal Z-score” value is 1.87. In the case of `CN(C)CCOC(c1ccccc1)c1ccccc1`, the “AlphaScreen HuR-RNA complex signal Z-score” value is 1.06. The value for `CN(C)c1ccc(C(=C2C=CC(=[N+](C)C)C=C2)c2ccc(N(C)C)cc2)cc1` was -0.499; that for `Cc1onc(-c2ccccc2)c1C(=O)N[C@@H]1C(=O)N2[C@@H]1SC(C)(C)[C@@H]2C(=O)O` was 1.1. The result for `CC(=O)[C@H]1CC[C@H]2[C@@H]3CCC4=CC(=O)CC[C@]4(C)[C@H]3CC[C@]12C` reads 0.806; that for `CCCCCCc1ccc(O)cc1O.Nc1c2ccccc2nc2ccccc12`, 1.12; that for `COC(=O)C[C@H]1C(C)(C)C(=O)[C@@H]2CC3=C(CC[C@]4(C)C3=CC(=O)O[C@H]4c3ccoc3)[C@@]1(C)C2=O`, -0.213.

(Values after the supplement of paper PMC3741180, “A Novel High Throughput Biochemical Assay to Evaluate the HuR Protein-RNA Complex Formation” (PLoS ONE, 2013).)
